Assay [1] concerns the target T1, GST-tagged Rad5p (S. cerevisiae) (UniProt P32849).
T1 sequence: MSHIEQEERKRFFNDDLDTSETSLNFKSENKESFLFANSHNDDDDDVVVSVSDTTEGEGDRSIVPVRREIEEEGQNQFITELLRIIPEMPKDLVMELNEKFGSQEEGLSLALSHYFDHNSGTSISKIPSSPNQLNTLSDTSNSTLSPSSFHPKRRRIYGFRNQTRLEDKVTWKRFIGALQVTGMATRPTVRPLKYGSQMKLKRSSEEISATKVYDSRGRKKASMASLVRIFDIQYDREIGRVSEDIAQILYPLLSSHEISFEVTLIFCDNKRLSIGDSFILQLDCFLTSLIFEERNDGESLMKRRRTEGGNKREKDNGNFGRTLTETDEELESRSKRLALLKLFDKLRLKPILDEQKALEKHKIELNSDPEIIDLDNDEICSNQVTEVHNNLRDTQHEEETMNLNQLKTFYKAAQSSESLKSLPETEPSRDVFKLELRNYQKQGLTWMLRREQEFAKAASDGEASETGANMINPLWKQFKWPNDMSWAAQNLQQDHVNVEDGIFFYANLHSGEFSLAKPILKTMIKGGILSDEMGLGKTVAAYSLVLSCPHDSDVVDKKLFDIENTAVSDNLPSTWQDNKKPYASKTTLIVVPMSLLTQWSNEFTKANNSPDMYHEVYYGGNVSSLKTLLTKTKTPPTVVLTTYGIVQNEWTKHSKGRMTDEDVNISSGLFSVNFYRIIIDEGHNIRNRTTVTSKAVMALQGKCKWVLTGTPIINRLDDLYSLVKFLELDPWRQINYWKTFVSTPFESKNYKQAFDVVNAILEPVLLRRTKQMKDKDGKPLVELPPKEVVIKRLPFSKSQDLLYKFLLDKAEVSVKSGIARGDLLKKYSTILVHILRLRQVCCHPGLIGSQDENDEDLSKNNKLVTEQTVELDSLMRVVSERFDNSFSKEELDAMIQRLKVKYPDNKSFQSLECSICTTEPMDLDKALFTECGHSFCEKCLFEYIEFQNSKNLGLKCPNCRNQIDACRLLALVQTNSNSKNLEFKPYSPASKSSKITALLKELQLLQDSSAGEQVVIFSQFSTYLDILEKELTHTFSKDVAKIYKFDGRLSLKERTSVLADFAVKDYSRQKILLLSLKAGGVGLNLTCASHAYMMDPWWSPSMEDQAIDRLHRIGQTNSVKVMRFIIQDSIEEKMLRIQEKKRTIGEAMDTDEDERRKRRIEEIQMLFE
The experiment in a line: co-IP.

The target of assay [2] is T2, PCNA K168A fused to the DNA binding domain (BD) (S. cerevisiae), P15873.
T2 chain: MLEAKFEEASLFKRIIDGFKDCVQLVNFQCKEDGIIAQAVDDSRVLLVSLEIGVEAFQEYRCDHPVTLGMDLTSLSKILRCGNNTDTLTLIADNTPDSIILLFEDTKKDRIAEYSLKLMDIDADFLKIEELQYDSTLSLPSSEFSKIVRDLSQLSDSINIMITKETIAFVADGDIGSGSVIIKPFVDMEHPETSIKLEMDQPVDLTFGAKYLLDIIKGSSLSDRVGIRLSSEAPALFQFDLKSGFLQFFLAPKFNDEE
Briefly: two-hybrid. The settings on record: remark: other sources report otherwise.

Assay [3] concerns the target Wild-type PCNA (POL30) fused to the DNA binding domain (BD) (S. cerevisiae) (UniProt P15873). Briefly: two-hybrid.
Assay [4] concerns the target PCNA K168A fused to the DNA binding domain (BD) (S. cerevisiae) (UniProt P15873). The experiment in a line: two-hybrid.

No constants are given. Whether binding was seen depends on the method and setting. For some assays here: In cells and extracts the contact can be indirect. Some binding calls cover weakened binding; strength is not graded here. For some assays here: Sequences can lack the tags named with a protein.

Regarding “HA-tagged wild-type PCNA (from UniProt P15873 1-258)”, the binding entry in assay [1] was “binds”.

B1: RAD18, P10862 1-487 (protein)
chain: MDHQITTASDFTTTSIPSLYQLDTLLRCHICKDFLKVPVLTPCGHTFCSLCIRTHLNNQPNCPLCLFEFRESLLRSEFLVSEIIQSYTSLRSSLLDALRIPKPTPVPENEEVPGPENSSWIELISESESDSVNAADDDLQIVATSERKLAKRSMTDILPLSSKPSKRNFAMFRSERIKKKSKPNEQMAQCPICQQFYPLKALEKTHLDECLTLQSLGKKPKISTTFPTESNPHNKSSSRFKVRTPEVDKSSCGETSHVDKYLNSMMSAEHQRLPKINFTSMTQSQIKQKLSSLGLSTNGTRQNMIKRYNHYEMLWNSNFCDSLEPVDEAELKRQLLSWDVSHNKTPQNSSNKGGISKLMIMKSNGKSSSYRKLLENFKNDKFNRKGWMVMFRKDFARLIREAKMKIKTGSSDSSGSVGHSNDGDGVEKVQSDQGTEDQQMEKDQDTVINEDRVAGERNLPNEDSTDADLSRELMDLNEYSKDPPGNN
For B1, in assay [2], the binding entry is listed as “binds”.

B2: RAD18 (protein, UniProt P10862 1-487)
chain: B1 chain
On to B2, for which, in assay [3], the binding entry was “binds”.

B3: Rad5p fused to the activating domain (AD) (protein, UniProt P32849 1-1169)
chain: T1 sequence
Turning to B3, the binding entry in assay [3] is reported as “binds”.

B4: DPB2 (protein, UniProt P24482 1-689)
chain: MFGSGNVLPVKIQPPLLRPLAYRVLSRKYGLSIKSDGLSALAEFVGTNIGANWRQGPATIKFLEQFAAVWKQQERGLFIDQSGVKEVIQEMKEREKVEWSHEHPIQHEENILGRTDDDENNSDDEMPIAADSSLQNVSLSSPMRQPTERDEYKQPFKPESSKALDWRDYFKVINASQQQRFSYNPHKMQFIFVPNKKQNGLGGIAGFLPDIEDKVQMFLTRYYLTNDRVMRNENFQNSDMFNPLSSMVSLQNELSNTNRQQQSSSMSITPIKNLLGRDAQNFLLLGLLNKNFKGNWSLEDPSGSVEIDISQTIPTQGHYYVPGCMVLVEGIYYSVGNKFHVTSMTLPPGERREITLETIGNLDLLGIHGISNNNFIARLDKDLKIRLHLLEKELTDHKFVILGANLFLDDLKIMTALSKILQKLNDDPPTLLIWQGSFTSVPVFASMSSRNISSSTQFKNNFDALATLLSRFDNLTENTTMIFIPGPNDLWGSMVSLGASGTLPQDPIPSAFTKKINKVCKNVVWSSNPTRIAYLSQEIVIFRDDLSGRFKRHRLEFPFNESEDVYTENDNMMSKDTDIVPIDELVKEPDQLPQKVQETRKLVKTILDQGHLSPFLDSLRPISWDLDHTLTLCPIPSTMVLCDTTSAQFDLTYNGCKVINPGSFIHNRRARYMEYVPSSKKTIQEEIYI
As for B4, the binding result in assay [3] and in assay [4] was “binds” throughout.

B5: REV1 (protein, UniProt P12689 1-985)
chain: MGEHGGLVDLLDSDLEYSINRETPDKNNCLSQQSVNDSHLTAKTGGLNARSFLSTLSDDSLIEYVNQLSQTNKNNSNPTAGTLRFTTKNISCDELHADLGGGEDSPIARSVIEIQESDSNGDDVKKNTVYTREAYFHEKAHGQTLQDQILKDQYKDQISSQSSKIFKNCVIYINGYTKPGRLQLHEMIVLHGGKFLHYLSSKKTVTHIVASNLPLKKRIEFANYKVVSPDWIVDSVKEARLLPWQNYSLTSKLDEQQKKLDNCKTVNSIPLPSETSLHKGSKCVGSALLPVEQQSPVNLNNLEAKRIVACDDPDFLTSYFAHSRLHHLSAWKANLKDKFLNENIHKYTKITDKDTYIIFHIDFDCFFATVAYLCRSSSFSACDFKRDPIVVCHGTKNSDIASCNYVARSYGIKNGMWVSQAEKMLPNGIKLISLPYTFEQFQLKSEAFYSTLKRLNIFNLILPISIDEAVCVRIIPDNIHNTNTLNARLCEEIRQEIFQGTNGCTVSIGCSDSLVLARLALKMAKPNGYNITFKSNLSEEFWSSFKLDDLPGVGHSTLSRLESTFDSPHSLNDLRKRYTLDALKASVGSKLGMKIHLALQGQDDEESLKILYDPKEVLQRKSLSIDINWGIRFKNITQVDLFIERGCQYLLEKLNEINKTTSQITLKLMRRCKDAPIEPPKYMGMGRCDSFSRSSRLGIPTNEFGIIATEMKSLYRTLGCPPMELRGLALQFNKLVDVGPDNNQLKLRLPFKTIVTNRAFEALPEDVKNDINNEFEKRNYKRKESGLTSNSLSSKKKGFAISRLEVNDLPSTMEEQFMNELPTQIRAEVRHDLRIQKKIQQTKLGNLQEKIKRREESLQNEKNHFMGQNSIFQPIKFQNLTRFKKICQLVKQWVAETLGDGGPHEKDVKLFVKYLIKLCDSNRVHLVLHLSNLISRELNLCAFLNQDHSGFQTWERILLNDIIPLLNRNKHTYQTVRKLDMDFEV
In the case of B5, the binding entry in assay [4] was “binds”.

B6: RFC3 (protein, UniProt P38629 1-340)
chain: MSTSTEKRSKENLPWVEKYRPETLDEVYGQNEVITTVRKFVDEGKLPHLLFYGPPGTGKTSTIVALAREIYGKNYSNMVLELNASDDRGIDVVRNQIKDFASTRQIFSKGFKLIILDEADAMTNAAQNALRRVIERYTKNTRFCVLANYAHKLTPALLSRCTRFRFQPLPQEAIERRIANVLVHEKLKLSPNAEKALIELSNGDMRRVLNVLQSCKATLDNPDEDEISDDVIYECCGAPRPSDLKAVLKSILEDDWGTAHYTLNKVRSAKGLALIDLIEGIVKILEDYELQNEETRVHLLTKLADIEYSISKGGNDQIQGSAVIGAIKASFENETVKANV
On to B6, for which the binding result in assay [3] and in assay [4] was “binds” throughout.

B7: ECO1 (protein, UniProt P43605 1-281)
chain: MKARKSQRKAGSKPNLIQSKLQVNNGSKSNKIVKCDKCEMSYSSTSIEDRAIHEKYHTLQLHGRKWSPNWGSIVYTERNHSRTVHLSRSTGTITPLNSSPLKKSSPSITHQEEKIVYVRPDKSNGEVRAMTEIMTLVNNELNAPHDENVIWNSTTEEKGKAFVYIRNDRAVGIIIIENLYGGNGKTSSRGRWMVYDSRRLVQNVYPDFKIGISRIWVCRTARKLGIATKLIDVARENIVYGEVIPRYQVAWSQPTDSGGKLASKYNGIMHKSGKLLLPVYI
Consider B7, for which the binding entry in assay [3] and in assay [4] was “binds” each time.
